This assay has as its target MBP-barr2 (barr2 fused to the C-terminus of maltose-binding protein) (UniProt P32120). Kind of assay: pull-down; purified MBP-barr2 (5 μg, ∼0.11 μM) with purified JNK3α2 or CAMKIIδ (5 μg, ∼0.18 μM) and amylose resin in 20 mM Tris-HCl pH 8, 137 mM NaCl, 1% Nonidet P-40, 2 mM EDTA, 3 h at 4 °C; eluted with 50 mM maltose; SDS-PAGE and Western blot; both purified. For orientation: In western blotting, separated proteins are transferred to a membrane and probed.

Protein sequences, listed by entry. Tags and fused reporters are not part of them. Lines headed by an entry give the natural chain unless they say otherwise; changes in a name come on top.
UniProt P32120: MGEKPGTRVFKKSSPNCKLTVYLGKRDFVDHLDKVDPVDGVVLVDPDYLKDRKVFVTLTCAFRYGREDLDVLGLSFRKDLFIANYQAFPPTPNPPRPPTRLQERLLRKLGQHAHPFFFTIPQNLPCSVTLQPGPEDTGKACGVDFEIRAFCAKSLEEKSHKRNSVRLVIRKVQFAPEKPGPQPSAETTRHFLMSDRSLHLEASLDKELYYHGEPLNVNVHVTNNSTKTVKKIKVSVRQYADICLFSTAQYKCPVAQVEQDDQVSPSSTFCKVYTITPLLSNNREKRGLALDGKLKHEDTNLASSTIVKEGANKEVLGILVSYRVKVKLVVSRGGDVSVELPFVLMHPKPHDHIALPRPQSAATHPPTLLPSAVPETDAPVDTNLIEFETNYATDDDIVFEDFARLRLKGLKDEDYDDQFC
UniProt Q13557: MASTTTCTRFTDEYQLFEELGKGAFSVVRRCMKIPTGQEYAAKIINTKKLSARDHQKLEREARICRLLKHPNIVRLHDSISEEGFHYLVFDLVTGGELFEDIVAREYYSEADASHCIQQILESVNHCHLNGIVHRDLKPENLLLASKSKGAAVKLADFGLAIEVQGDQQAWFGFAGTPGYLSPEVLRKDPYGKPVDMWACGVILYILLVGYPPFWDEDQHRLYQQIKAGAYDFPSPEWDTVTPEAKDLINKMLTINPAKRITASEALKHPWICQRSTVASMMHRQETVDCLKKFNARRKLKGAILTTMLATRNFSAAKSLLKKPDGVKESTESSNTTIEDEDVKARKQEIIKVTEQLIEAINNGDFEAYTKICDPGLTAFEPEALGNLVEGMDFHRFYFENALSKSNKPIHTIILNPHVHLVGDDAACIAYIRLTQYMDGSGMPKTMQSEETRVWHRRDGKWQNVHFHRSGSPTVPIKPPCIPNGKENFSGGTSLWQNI

Results are given in words; binding and its absence hold for the method and conditions named.

Consider “purified CAMKIIδ (from UniProt Q13557 1-499) (enzyme)”, for which the binding entry is given as “no binding (tested: MBP-barr2 ∼0.11 μM; CAMKII ∼0.18 μM)”.

These data come from publication PMC5296650.
